According to patent US20260116971A1:
These are yes or no findings as the source states them, for the method shown. Some binding calls cover weakened binding; strength is not graded here.

Biological target: cynomolgus (Cyno) monkey (Macaca fascicularis) Nectin-2 (cynomolgus monkey (Macaca fascicularis))
Experiment: FACS titration (13.3 nM-0.02 nM) on CHO cells expressing Cyno Nectin-2

- binding: binds
B1: anti-Nectin-2 monoclonal antibody clone 11 (antibody, V domains shown)
VH: EVQLQQSGTVLTRPGASVKMSCKASGYIFTSYWIHWVKQRPGQGLEWIGAVYPGNSDSNYNQKFKAKAKLTAVTSTSTAYMELSSLTSEDSAVYYCTKLVGTFDYWGQGTTLTVSS
VL: DIVMTQSQKFMSSSIGDRVSVTCKASQNVGINVVWYQQRAGQSPKTLIYSASYRYSGVPDRFTGSGSGTDFTLTISNVQSEDLAEYFCQQYNTNPFTFGSGTKLEIK
